Measurements from paper PMC4275582.
No constants are given. Whether binding was seen depends on the method and setting. Binding seen in cells or lysates may run through a third protein. Some results given as binding are weak or reduced against the parent protein; the word gives no strength. Where a sequence is shown, tags or fusion partners need not be part of it. Values belong to the molecule of their own block, whether it stands above or below them.

The chains behind the UniProt entries cited, without tags or fusion partners.
UniProt Q9Y265: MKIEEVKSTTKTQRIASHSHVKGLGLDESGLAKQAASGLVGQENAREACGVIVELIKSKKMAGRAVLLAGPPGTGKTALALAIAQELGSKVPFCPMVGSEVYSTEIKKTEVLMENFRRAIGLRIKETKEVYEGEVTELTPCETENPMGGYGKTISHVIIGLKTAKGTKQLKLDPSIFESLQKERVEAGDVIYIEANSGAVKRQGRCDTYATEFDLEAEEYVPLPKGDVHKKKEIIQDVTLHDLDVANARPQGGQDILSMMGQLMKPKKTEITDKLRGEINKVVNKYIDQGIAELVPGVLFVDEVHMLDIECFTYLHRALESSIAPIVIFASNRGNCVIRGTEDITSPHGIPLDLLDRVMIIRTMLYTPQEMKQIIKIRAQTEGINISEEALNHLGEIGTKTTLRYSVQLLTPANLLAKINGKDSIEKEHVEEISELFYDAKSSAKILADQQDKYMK

What was measured:
[1] = biological target: T1, ITFG1-Myc (human LINKIN) (human) (UniProt Q8TB96); test: co-IP; Myc-beads immunoprecipitation from ITFG1-Myc-transfected and non-transfected HEK 293T cells; Western blot with antibodies against RUVBL1, RUVBL2, α-tubulin, β-tubulin and β-actin
T1 sequence: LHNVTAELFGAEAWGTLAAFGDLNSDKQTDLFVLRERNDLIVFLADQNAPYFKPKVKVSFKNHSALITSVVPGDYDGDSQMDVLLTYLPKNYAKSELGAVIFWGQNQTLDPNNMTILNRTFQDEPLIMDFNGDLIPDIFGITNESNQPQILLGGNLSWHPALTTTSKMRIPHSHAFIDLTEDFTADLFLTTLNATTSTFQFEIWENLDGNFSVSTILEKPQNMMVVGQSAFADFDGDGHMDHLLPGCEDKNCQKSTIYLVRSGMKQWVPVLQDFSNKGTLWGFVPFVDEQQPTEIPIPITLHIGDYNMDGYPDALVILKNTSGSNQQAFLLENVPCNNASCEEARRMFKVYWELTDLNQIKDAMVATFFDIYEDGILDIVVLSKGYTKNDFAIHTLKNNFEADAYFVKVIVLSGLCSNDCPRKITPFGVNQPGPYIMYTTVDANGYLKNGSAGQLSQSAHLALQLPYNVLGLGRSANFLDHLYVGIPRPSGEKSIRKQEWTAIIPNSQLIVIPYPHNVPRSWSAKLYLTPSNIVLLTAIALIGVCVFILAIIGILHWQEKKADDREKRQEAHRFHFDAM

Flag-RUVBL1 (human) = Flag-RUVBL1 (human) (UniProt Q9Y265); test: co-IP; membrane fraction (Mem-PER Plus kit) of HEK 293T cells transfected with ITFG1-Myc, Flag-RUVBL1 and HA-RUVBL2; Flag-beads immunoprecipitation of Flag-RUVBL1; Western blot; control cells with Myc vector

binding [1]: binds
Molecule: RUVBL1 (from UniProt Q9Y265 1-456)

binding (Flag-RUVBL1 (human)): binds
B1: ITFG1-Myc (human LINKIN) (protein, UniProt Q8TB96 34-612)
chain: T1 sequence
